PubChem BioAssay AID720505 | Drosophila RNAi Screening Center, 2013

- Aim: 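Genes needed for store-operated calcium entry in fly cells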 (primary screen)
- System: Drosophila S2R+ cells
- Reagent: long dsRNA against Drosophila genes
- Challenge: thapsigargin (2 µM) in calcium-free buffer to empty internal stores, then 2 mM calcium added back
- Measurement: 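Fluo-4 signal in 384-well plates read on a FLIPR after thapsigargin (2 µM, calcium-free) store depletion and 2 mM calcium add-back; unnormalised mean endpoint per well; screen run twice, selected wells retested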
- Scale: calcium signal: higher = more calcium entry after store depletion
- Active means: 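About 1500 genes called as lowering calcium entry, by varying amounts, judged against per-plate control wells with STIM1 as positive and Rho1 as negative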
- Meaning of the calls: active = called as lowering calcium entry; inactive = not called
The deposit covers about 20,000 reagents; shown is a random part of those that have a named target and a result. Of all reagents, about 2,100 (10%) were called active. 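Raw plate signals without normalisation; calls rest on control-based scores that were not deposited; replicate 2 separates called from uncalled poorly.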 The numbers tell different reagents against one gene apart. The record does not give: the amount of reagent, the time to read-out.

calcium signal, replicate 1	calcium signal, replicate 2	outcome	Gene	reagent
88.9	105	inactive	cass	1
323	179	inactive	CG14313	1
77.8	92.4	inactive	CG30076	1
160	98.7	inactive	Dhc1	1
76.4	73.9	inactive	CG16719	1
137	151	inactive	GABA-B-R3	1
115	159	inactive	gammaTub37C	1
96.6	114	inactive	CG12155	1
117	141	inactive	CG12155	2
59.3	84.1	active	TwdlK	1
187	187	inactive	CG5348	1
116	133	inactive	CG11409	1
128	149	inactive	Decay	1
108	73.6	inactive	ctp	1
135	77.1	inactive	Hip1	1
93.5	110	inactive	CG5199	1
59.3	235	inactive	CG13078	1
164	115	inactive	l(2)k09848	1
138	211	inactive	CG33062	1
159	175	inactive	CG7781	1
119	99	inactive	Polr2J	1
256	109	inactive	CG3097	1

Part of the list above in another layout:
{"Gene":"GABA-B-R3","reagent":1,"calcium signal, replicate 1":137,"calcium signal, replicate 2":151,"outcome":"inactive"}
{"Gene":"gammaTub37C","reagent":1,"calcium signal, replicate 1":115,"calcium signal, replicate 2":159,"outcome":"inactive"}
{"Gene":"CG12155","reagent":1,"calcium signal, replicate 1":96.6,"calcium signal, replicate 2":114,"outcome":"inactive"}

Next entries follow:
calcium signal, replicate 1	calcium signal, replicate 2	outcome	Gene	reagent
128	131	inactive	mRRF1	1
70.2	137	inactive	CG12483	1
229	106	inactive	CG12729	1
75.1	90.2	active	CG10353	1
106	101	inactive	CG34348	1
112	80.3	inactive	CG34348	2
221	92.4	inactive	Tep2	1
61.5	204	active	Tep2	2
211	173	inactive	KaiR1D	1
122	208	inactive	CG30183	1
142	165	inactive	CG30183	2
115	151	inactive	fs(1)Ya	1
101	140	inactive	fs(1)Ya	2
139	184	inactive	CG31473	1
144	211	inactive	Mvl	1
		active	CG12541	1
258	102	inactive	CG12541	2
151	151	inactive	Nox	1
134	133	inactive	Nox	2
76	196	inactive	lncRNA:CR41601	1
220	173	inactive	Rlip	1
150	139	inactive	sr	1
167	99.4	inactive	CG6055	1
142	133	inactive	CG6891	1
121	172	inactive	Lztr1	1
109	171	inactive	Lztr1	2
185	189	inactive	CG14441	1
70.9	112	active	CR12842	1
168	139	inactive	mys	1
91	214	inactive	Sec61alpha	1
138	130	inactive	CG30385	1
66.4	98.6	active	CG6415	1
215	142	inactive	CG17097	1
111	144	inactive	L (retired record)	1
87.8	127	inactive	L (retired record)	2
